Measurements from PubChem BioAssay AID445 (National Center for Advancing Translational Sciences (NCATS), 2006).
The list shows a part of the results. Shown are side measurements of this screen, not its main read-out; they come without a call. Most of these compounds were active or inconclusive in the main read-out, so they are no random draw. The note in brackets gives the kind of curve behind each potency; many fits are weak.

assay: IkB Signaling; details: ABC-DLBCL IkBa-CBG/CBR dual luciferase ratio (green luciferase fused to IkBa over red control in OCI-Ly3 lymphoma cells), 4 h; measured here: control luc red channel unless noted
In short: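 Luminescence ratio of IκBα-fused green versus native red beetle luciferase in OCI-Ly3 cells, 4 h post-doxycycline with compound; red signal alone, scaled from basal (0%) to zero light (-100%), flagged nonspecific or cytotoxic effects.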

Compound | AC50
CCc1nnc(NC(=O)CN2CCN(c3nc(-c4ccccc4)cs3)CC2)s1 | 31.6 µM [falling, single point]
COc1ccccc1-n1cnnc1SCC(=O)Nc1cc(C(C)(C)C)nn1-c1ccccc1 | 5.01 µM [falling, partial curve]
Cc1cc(-c2ccccc2)n(-c2ccc(C(=O)N3CCN(c4ncccn4)CC3)cc2)n1 | 3.98 µM [falling, full curve, poor fit]
O=C(CC1N=C2c3ccccc3N=C(SCC(=O)Nc3cccc(C(F)(F)F)c3)N2C1=O)NCc1cccs1 (stereo not drawn) | 12.6 µM [falling, partial curve]
O=C(Nc1cccc(Cl)c1)c1ccc2c(=O)n3c(nc2c1)CCCCC3 | 7.94 µM [falling, partial curve]
CCc1ccc(CN(Cc2ccco2)C(=O)c2ccccc2Cl)cc1 | 15.8 µM [falling, partial curve]
Cc1cc(C)c(C)c(S(=O)(=O)Nc2ccc(O)cc2)c1C | 12.6 µM [falling, partial curve]
Cc1ccc(C(=O)Nc2nnc(S(=O)(=O)N3CCOCC3)s2)cc1 | 2 µM [rising, partial curve]
COC(=O)c1sc(-c2ccccc2)cc1NC(=O)c1cccc(F)c1 | 12.6 µM [falling, partial curve]
O=C(CCNS(=O)(=O)c1cccc2nonc12)N1CCN(c2cccc(Cl)c2)CC1 | 31.6 µM [falling, partial curve]
O=C(NCc1ccc(F)cc1)C1CCN(C(=O)c2ccc(-n3ccc4ccccc43)s2)CC1 | 10 µM [falling, partial curve]
COc1cccc(CNC(=O)c2c(C)nn(-c3cccc(C)c3)c2-n2cccc2)c1 | 20 µM [falling, partial curve]
O=C(NCCCc1ccccc1)c1nn(-c2ccccc2F)nc1CO | 25.1 µM [falling, single point]
COc1ccc2nc3c(cc2c1)c(NC(=O)c1cccs1)nn3CC(C)C | 2 µM [falling, full curve]
Cc1cccc2cc(CN(Cc3nnnn3Cc3ccccc3)C3CCCC3)c(=O)[nH]c12 | 10 µM [falling, partial curve]
Cc1cc(C)cc(-n2cnc3cc(C(=O)NCCc4ccccc4)ccc32)c1 | 25.1 µM [falling, single point]
CCOC(=O)c1c(Oc2ccc(C(=O)OC)cc2)nnc(-c2ccccc2)c1-c1ccccc1 | 12.6 µM [falling, partial curve]
CCN(C(=O)Cn1c(C(=O)OC)cc2oc3ccccc3c21)c1cccc(C)c1 | 10 µM [falling, partial curve]

3 entries from above, ordered by molar mass, ascending:
Compound | AC50
O=C(Nc1cccc(Cl)c1)c1ccc2c(=O)n3c(nc2c1)CCCCC3 | 7.94 µM [falling, partial curve]
COc1ccc2nc3c(cc2c1)c(NC(=O)c1cccs1)nn3CC(C)C | 2 µM [falling, full curve]
COc1cccc(CNC(=O)c2c(C)nn(-c3cccc(C)c3)c2-n2cccc2)c1 | 20 µM [falling, partial curve]
